Source: PubChem BioAssay (NCATS)
The shares of active, inactive and inconclusive entries below differ from those in the screen. A potency beside an inconclusive call is a rough fit, not a confirmed value. Active and inactive are the calls of the source. The call rests on the fitted dose curve; in most records, active means well fitted inhibition curve with a large enough effect; inconclusive means small, poorly fitted or top-dose-only effect; inactive means no such curve, though single readings can be large or run the other way.

Protein sequences, listed by entry. Tags and fused reporters are not part of them. Lines headed by an entry give the natural chain unless they say otherwise; changes in a name come on top.
UniProt Q8WZA2: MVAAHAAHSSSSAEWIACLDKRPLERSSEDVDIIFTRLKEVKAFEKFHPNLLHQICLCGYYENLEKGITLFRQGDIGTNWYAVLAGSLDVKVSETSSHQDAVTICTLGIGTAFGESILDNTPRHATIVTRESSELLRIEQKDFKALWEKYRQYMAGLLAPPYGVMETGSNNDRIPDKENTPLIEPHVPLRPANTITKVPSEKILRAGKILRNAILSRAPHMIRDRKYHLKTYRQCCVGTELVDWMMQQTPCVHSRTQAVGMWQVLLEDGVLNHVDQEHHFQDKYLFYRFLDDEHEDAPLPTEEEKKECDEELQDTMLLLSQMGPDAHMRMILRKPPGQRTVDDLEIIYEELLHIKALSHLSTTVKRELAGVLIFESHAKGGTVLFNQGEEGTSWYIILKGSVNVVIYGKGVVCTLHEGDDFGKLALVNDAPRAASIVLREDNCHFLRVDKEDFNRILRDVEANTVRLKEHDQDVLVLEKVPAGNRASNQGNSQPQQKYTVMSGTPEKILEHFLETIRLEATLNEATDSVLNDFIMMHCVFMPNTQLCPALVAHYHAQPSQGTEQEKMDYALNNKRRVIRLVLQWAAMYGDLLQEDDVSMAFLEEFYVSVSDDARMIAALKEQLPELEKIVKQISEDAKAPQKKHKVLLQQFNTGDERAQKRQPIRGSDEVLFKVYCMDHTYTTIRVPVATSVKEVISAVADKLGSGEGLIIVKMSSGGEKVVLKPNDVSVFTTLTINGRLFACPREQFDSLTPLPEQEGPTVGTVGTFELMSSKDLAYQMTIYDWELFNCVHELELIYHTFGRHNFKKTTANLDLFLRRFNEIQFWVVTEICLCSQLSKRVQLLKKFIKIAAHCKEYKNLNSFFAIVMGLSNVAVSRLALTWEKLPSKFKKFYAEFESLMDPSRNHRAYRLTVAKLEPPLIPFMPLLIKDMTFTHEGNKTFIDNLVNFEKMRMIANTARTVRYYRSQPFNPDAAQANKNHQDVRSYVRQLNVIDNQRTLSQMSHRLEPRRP

The molecules below were run against Rap guanine nucleotide exchange factor 4 (Homo sapiens) (UniProt Q8WZA2) (assay: Confirmatory qHTS for antagonist of cAMP-regulated guanine nucleotide exchange factor 4 (EPAC2) (AID 1645885; further: nearly all actives have a fitted effect of over 25% in size)). Conditions: EPAC2 Rap1B-BODIPY-GDP exchange fluorescence, biochemical; activity change, negative = inhibition: at 12.7 µM (top of the series) unless noted; series mostly up to 114 µM.
On the % scale 0 is the no-effect control and ±100 the full control effect; potency means the concentration at half of the fitted maximal effect.

Potency, active:
COc1ccc(OC)c(NC(=O)C2(C)CCN2CCc2ccccc2)c1 (stereo not given) 42.6 µM, Cc1ccccc1NC(=O)CN1C(=O)N/C(=C\c2ccccc2OCc2ccc(C(=O)O)cc2)C1=O 53.6 µM, Oc1ccc(Br)cc1C=Nc1cccn2cc(-c3ccccc3)nc12 75.7 µM, Cc1cc(C(=O)Nc2ccon2)c(C)o1 84.9 µM, C[C@H]1CN([C@@H](C)CO)S(=O)(=O)c2ccc(Br)cc2O[C@@H]1CN(C)Cc1ccccc1 23.9 µM

Potency, inactive:
OC1CCN(c2c3c(nc4cc(-c5cccc(F)c5)nn24)CCCC3)CC1, CC1Cc2nc(SCC(=O)OCc3ccccc3)n(C)c(=O)c2S1 (stereo not given), O=c1nc(/C=C/c2cccn2-c2ccc([N+](=O)[O-])cc2)cc(C(F)(F)F)[nH]1, Cc1[nH]n(-c2ccccc2)c(=O)c1C=Nc1ccc(S(=O)(=O)N=C(N)N)cc1, COc1cccc(OCCOc2ccc(/C=C3\C(=N)N4N=C(S(C)(=O)=O)SC4=NC3=O)cc2OC)c1, CCOC(=O)c1ccccc1NC(=O)c1c(C)oc2ncnc(N3CCOCC3)c12, Cc1cccc(NCC(=O)N/N=C\c2ccc[nH]2)c1, O=S(=O)(Nc1nc2ccc(Cl)cc2s1)c1cccs1, Cc1occc1C(=O)N/N=C/C1=C(N2CCOCC2)C(=C/c2ccc(Cl)cc2Cl)/CC1, CCOC(=O)c1ccc(N2C(=O)c3[nH]nc(-c4ccc(OCC)cc4)c3C2c2cccs2)cc1 (stereo not given), CC(/C=C1\SC(=S)N(NS(=O)(=O)c2ccccc2)C1=O)=C\c1ccccc1, COc1ccc(OC)c(NC(=O)C(C)Oc2ccc(Br)cc2)c1 (stereo not given)

Potency, inconclusive:
O=S(=O)(Nc1nccs1)c1ccc(Nc2nnc(-c3ccccc3)c3ccccc23)cc1 0.0213 µM [inhibitor, full curve, poor fit], CN(C)c1ccc(-c2[nH][nH]c(=O)c2NC(=O)c2ccc3ccccc3n2)cc1 75.7 µM [inhibitor, partial curve, poor fit], CC1CC(C)CN(C(=S)SCc2nc(N)nc(Nc3ccccc3)n2)C1 (stereo not given) 60.1 µM [inhibitor, partial curve, poor fit], CC(C)C[C@H]1COCCS(=O)(=O)N1Cc1ccc(Cl)c(Cl)c1 3.01 µM [inhibitor, single point], CCOC(=O)C(C)Sc1ncnc2c1nnn2-c1ccc(F)cc1 (stereo not given) 0.0239 µM [inhibitor, full curve, poor fit], O=C(CS(=O)(=O)c1ccccc1)c1cc2ccccc2oc1=O 0.0213 µM [inhibitor, full curve, poor fit], CC#C[C@@H](CC)c1ccc2ccn(C)c2c1 2.69 µM [inhibitor, partial curve, poor fit], N#CC(c1ccccc1)C(CC(=NO)c1ccccc1)c1ccccc1 (stereo not given) 23.9 µM [inhibitor, full curve, poor fit], Cc1ccc(-c2ccc(CN3C(C(C)C)C(=O)N(Cc4cn(CCC5OCCO5)nn4)CCS3(=O)=O)cc2)c(C)c1 (stereo not given) 1.9 µM [inhibitor, partial curve, poor fit], Nc1ccc(C(=O)N2CCN(S(=O)(=O)c3ccc(Cl)s3)CC2)cc1[N+](=O)[O-] 60.1 µM [inhibitor, partial curve, poor fit], Cc1cc2oc(=O)c(CC(=O)O)c(C)c2c2occ(C(C)(C)C)c12 33.8 µM [inhibitor, full curve], O=S(=O)(Nc1ccccc1-c1ccccc1)c1ccccc1 37.9 µM [inhibitor, partial curve], Cc1ccc2nc(-c3cccc(Br)c3)c(Cc3ccccn3)n2c1 60.1 µM [inhibitor, partial curve, poor fit], COC(=O)C1=CN(c2c(C)cc(C)cc2C)C(N)=C(C#N)C1c1cccc(F)c1 (stereo not given) 21.3 µM [inhibitor, full curve], Cc1cc(C(C)(C)C)cc(C)c1COC(=O)c1cccnc1 47.8 µM [inhibitor, partial curve, poor fit], CC(C)=CCc1c(O)cc(O)c2c1OC(c1ccc(O)cc1)CC2=O (stereo not given) 37.9 µM [inhibitor, full curve], O=C(Cc1c(Sc2ccccc2)c2ccccc2n1Cc1ccccc1)NCCO 95.3 µM [inhibitor, single point], CCOC(=O)c1c(NC(=O)C2C3C=CC(C3)C2C(=O)O)sc2c1CCC(CC)C2 (stereo not given) 33.8 µM [inhibitor, partial curve, poor fit], CCOC(=O)c1ccc(NC(=O)c2c(N)n(Cc3ccccc3)c(=O)[nH]c2=O)cc1 3.38 µM [inhibitor, partial curve, poor fit], Cc1ccc(C)c(Cn2nc(-c3ccccc3)ccc2=O)c1 9.53 µM [inhibitor, partial curve, poor fit], CCCCOC(=O)Nc1ccc(S(=O)(=O)Nc2nccs2)cc1 53.6 µM [inhibitor, partial curve, poor fit], Cc1cc(C)c(Cn2cnc3ccccc32)c(C)c1 60.1 µM [inhibitor, partial curve]

Activity change, negative = inhibition, inconclusive:
CC(C)=CCc1c(O)cc2oc3c(CC=C(C)C)c(O)c(O)c(CC=C(C)C)c3c(=O)c2c1O -43.8% [inhibitor] [at 114 µM]
